These are yes or no findings as the source states them, for the method shown. Binding seen in cells or lysates may run through a third protein. Some results given as binding are weak or reduced against the parent protein; the word gives no strength. Where a sequence is shown, tags or fusion partners need not be part of it.
Assays:
[1] = molecular target: T1, C. reinhardtii IFT74 (C. reinhardtii (endogenous in flagella)) (UniProt Q6RCE1); experiment: co-sedimentation; flagellar matrix of wild-type C. reinhardtii fractionated through a 10–25% sucrose density gradient; fractions on 10% SDS-PAGE, Western blotting
T1 sequence: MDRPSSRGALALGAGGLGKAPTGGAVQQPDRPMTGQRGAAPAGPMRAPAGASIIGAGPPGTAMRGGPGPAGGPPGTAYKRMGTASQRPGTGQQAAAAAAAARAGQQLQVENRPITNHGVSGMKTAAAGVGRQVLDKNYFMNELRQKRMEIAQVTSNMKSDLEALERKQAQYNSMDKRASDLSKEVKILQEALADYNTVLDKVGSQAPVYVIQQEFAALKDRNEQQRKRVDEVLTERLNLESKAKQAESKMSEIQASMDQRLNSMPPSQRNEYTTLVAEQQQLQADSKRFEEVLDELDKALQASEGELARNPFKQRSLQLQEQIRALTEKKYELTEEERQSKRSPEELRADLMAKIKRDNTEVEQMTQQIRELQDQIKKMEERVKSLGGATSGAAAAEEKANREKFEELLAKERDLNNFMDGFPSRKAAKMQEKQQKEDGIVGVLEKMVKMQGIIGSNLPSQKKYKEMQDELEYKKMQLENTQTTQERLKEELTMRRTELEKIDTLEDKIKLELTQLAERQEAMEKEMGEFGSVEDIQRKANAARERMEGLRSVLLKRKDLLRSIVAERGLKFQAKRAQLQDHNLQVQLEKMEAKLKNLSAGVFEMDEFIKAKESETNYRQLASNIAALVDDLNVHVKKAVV

[2] = molecular target: T2, C. reinhardtii IFT46 (C. reinhardtii (endogenous in flagella)) (UniProt A2T2X4); experiment: as above
T2 sequence: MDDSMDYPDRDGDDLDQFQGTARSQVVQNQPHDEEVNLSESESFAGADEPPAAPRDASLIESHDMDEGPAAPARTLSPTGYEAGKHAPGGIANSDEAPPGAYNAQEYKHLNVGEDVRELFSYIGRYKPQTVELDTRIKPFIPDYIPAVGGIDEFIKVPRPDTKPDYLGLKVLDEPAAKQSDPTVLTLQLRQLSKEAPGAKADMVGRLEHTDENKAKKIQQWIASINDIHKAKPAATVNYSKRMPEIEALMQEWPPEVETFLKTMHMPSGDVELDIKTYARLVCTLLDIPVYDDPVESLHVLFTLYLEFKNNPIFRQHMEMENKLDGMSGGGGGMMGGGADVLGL

B1: C. reinhardtii DYF13 (protein, UniProt A8JA42 1-555)
chain: MFYSKSRPQHAARTNVAQAAANEKPKVPELEEFLTKRDYLGAIALLSFRRHANRNDLKNLEWLAYCYFHYGEHDKALVIYKELLQHEDPDPMFFVYSAACLYYMGMYKEAEEQALQGPKCALQTRILFHSAQRQGNDDKLMAYHGQLTDSIEDQLTLASIHYQRSHFQEATDIYKRLLLEHRDYLRSTVVYVALCYCKLDYYDVSLEILGVYLSAFPDSAIAVNLKACNHFRMYNGKAAEAELKTLAELSGGQHLDHDLIRHNLVVFRGGENALQVLPPLSDIPPEARLNLVIHHLRHHEVGEAFGLIKDMEPSTPPEFILKAVVHAMLGQVKGDPEHLKKAQQYYQLVGASASECDTIPGRQCMASCFFLLKQFEDVLVFLSSIKTYFLNDDDFNWNLGIAKAATGKYKEAEETLLQIANDKYRNEYTYTSWLARCYIMNGKARLAWERYLQLETNDESYQLLLLIANDCYKMGAFYFACKAFDVLERLDPAPEYLEGKKGAACGAFQMIVAGKEPKDLLRDVISLLRGNNSADQCEPIVAVMRKWAKNNGVKL
binding [1]: binds
binding [2]: binds

— publication PMC3936282
